Reference: US20210347823A1 (Massachusetts Institute of Technology, priority 2018, published 2021)

Tested on: not listed separately
Experiment: general procedure: Fmoc solid-phase peptide synthesis; Rink Amide resin, 0.52 mmol g^-1; HBTU
Details: whole synthesis, 220 nm

GLGTILGLLKSL-NH2 and H-ILGTILGLLKSL-NH2 are the same in “final HPLC purity” value: 99% for the first, 99% for the second.

H-ILGTILKLLKSL-NH2 and ILETKLGLLKSE-NH2 are the same in “final HPLC purity” value: 99% for the first, 99% for the second.

Going from ILGKILGLLKSL-NH2 to ILGTILGLFKSL-NH2, the “final HPLC purity” value rises from 98% to 99%.

ILGTILGLLKSL-NH2 and ILGTKLGLLKSL-NH2 are the same in “final HPLC purity” value: 99% for the first, 99% for the second.

For ILGTLLGLKKSL-NH2, the “final HPLC purity” value was 99%.

Tested on: human red blood cells
Experiment: Hemolytic activity assay
Type: cell-based
Details: human erythrocytes vs average MIC
Procedure: FIGS. 6A-6B. Hemolysis and resistance to protease-mediated degradation of engineered peptides. FIG. 6A. Schematic of experimental design and hemolytic assay results of Pol-CP—NH2 and derivatives, where hemolytic activity was evaluated by incubating the peptides (0.1-100 μmol L^−1) with human red blood cells in PBS at room temperature for 1 h. Experiments were performed in triplicate, (*p<0.05). FIG. 6B. Resistance to degradation of Pol-CP—NH2 and analogs exposed to fetal bovine serum (FBS) proteases for 6 h. Experiments were done in triplicate.
Hemolytic Activity Assays. Human erythrocytes were collected and washed three times by centrifugation at 300×g with PBS (pH 7.4). After the last centrifugation, the cells were resuspended in PBS pH 7.4. Aliquots at a concentration of 0.1 to 100 ? mol L^−1 of the peptides were added to the 96-well microplate, where in each well containing 50 ? L of a suspension of erythrocytes to 0.4% in a phosphate saline buffer (10 mmol L^−1 Na2HPO4, 1.8 mmol L^−1 […], pH 7.4, 137 mmol L^−1 NaCl and 2.7 mmol L^−1KCl). After that, the samples were incubated at room temperature for 1 h. Hemolysis was determined by reading absorbance at 405 nm of each well in a bed of plates. 1% SDS in PBS solution was used as positive control (Shalel S. et al., J. Colloid Interface Sci. 252, 66-76 (2002); Love L. J. Cell. Comp. Physiol. 36, 133-148 (1950)) and as negative control was used PBS only. MHC was defined as the maximal non-hemolytic concentration.

Going from “H-ILGTILGLLKSL-NH2 [WT, ILGTILGLLKSL-NH2, reference compound]” to “H-ILGTILKLLKSL-NH2 [Peptide 16, ILGTILKLLKSL-NH2]”, the “SI (Selectivity Index = HC50/MICaverage)” value rises from 3.1 to 9.2.

In the case of “ILGTILGLFKSL-NH2 [Peptide 17, ILGTILGLFKSL-NH2]”, the “SI (Selectivity Index = HC50/MICaverage)” value was 2.5.

Tested on: not listed separately
Experiment: peptide made by a vendor (peptide synthesis; Rink Amide resin, 0.52 mmol g^-1; HBTU)
Details: whole synthesis, 220 nm

First: ALGTILGLLKSL-NH2
Second: IAGTILGLLKSL-NH2
The “final HPLC purity” value of the first is lower: 95% for the first, 96% for the second.

Compared with ILATILGLLKSL-NH2, ILGAILGLLKSL-NH2 is lower in “final HPLC purity” value: 96% for the first, 93% for the second.

First: ILGTALGLLKSL-NH2
Second: ILGTIAGLLKSL-NH2 (C-terminal amide)
The “final HPLC purity” value of the first is higher: 94% for the first, 93% for the second.

First: ILGTILALLKSL-NH2
Second: ILGTILGALKSL-NH2
The “final HPLC purity” value of the first is lower: 92% for the first, 93% for the second.

Compared with ILGTILGLAKSL-NH2, ILGTILGLLASL-NH2 is higher in “final HPLC purity” value: 90% for the first, 92% for the second.

Going from ILGTILGLLKAL-NH2 to ILGTILGLLKSA-NH2, the “final HPLC purity” value falls from 95% to 92%.

Where no end group is shown, it is not given here.
